Screening data, single-dose tests

By UniProt entry, the sequences of proteins in these tests, tags left out. Residues count along the entry.
UniProt A4I591, 1-473: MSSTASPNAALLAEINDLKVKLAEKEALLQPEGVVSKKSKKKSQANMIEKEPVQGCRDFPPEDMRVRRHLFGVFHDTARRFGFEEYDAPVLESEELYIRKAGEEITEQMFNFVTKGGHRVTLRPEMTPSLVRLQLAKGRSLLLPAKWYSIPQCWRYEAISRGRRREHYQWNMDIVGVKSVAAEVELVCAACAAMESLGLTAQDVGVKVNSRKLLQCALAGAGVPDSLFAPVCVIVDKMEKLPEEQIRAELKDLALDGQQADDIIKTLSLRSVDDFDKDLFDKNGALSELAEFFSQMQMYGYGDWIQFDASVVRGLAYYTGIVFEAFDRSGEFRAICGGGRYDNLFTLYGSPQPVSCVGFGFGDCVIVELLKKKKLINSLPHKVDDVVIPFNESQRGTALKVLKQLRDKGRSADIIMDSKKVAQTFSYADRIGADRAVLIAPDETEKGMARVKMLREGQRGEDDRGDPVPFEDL
UniProt P9WPC5, whole entry: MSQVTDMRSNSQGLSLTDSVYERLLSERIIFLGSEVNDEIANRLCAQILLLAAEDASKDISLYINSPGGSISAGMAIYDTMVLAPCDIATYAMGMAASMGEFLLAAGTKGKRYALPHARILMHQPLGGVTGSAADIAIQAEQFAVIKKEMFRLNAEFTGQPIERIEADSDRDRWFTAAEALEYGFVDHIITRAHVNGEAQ
UniProt P9WPC3, whole entry partner: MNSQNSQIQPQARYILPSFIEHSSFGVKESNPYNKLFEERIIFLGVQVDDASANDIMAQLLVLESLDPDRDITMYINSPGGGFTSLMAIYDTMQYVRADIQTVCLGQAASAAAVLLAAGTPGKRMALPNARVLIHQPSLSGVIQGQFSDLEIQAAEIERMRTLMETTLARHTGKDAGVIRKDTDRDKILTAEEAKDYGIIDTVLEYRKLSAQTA
UniProt Q4DA54, 1-478: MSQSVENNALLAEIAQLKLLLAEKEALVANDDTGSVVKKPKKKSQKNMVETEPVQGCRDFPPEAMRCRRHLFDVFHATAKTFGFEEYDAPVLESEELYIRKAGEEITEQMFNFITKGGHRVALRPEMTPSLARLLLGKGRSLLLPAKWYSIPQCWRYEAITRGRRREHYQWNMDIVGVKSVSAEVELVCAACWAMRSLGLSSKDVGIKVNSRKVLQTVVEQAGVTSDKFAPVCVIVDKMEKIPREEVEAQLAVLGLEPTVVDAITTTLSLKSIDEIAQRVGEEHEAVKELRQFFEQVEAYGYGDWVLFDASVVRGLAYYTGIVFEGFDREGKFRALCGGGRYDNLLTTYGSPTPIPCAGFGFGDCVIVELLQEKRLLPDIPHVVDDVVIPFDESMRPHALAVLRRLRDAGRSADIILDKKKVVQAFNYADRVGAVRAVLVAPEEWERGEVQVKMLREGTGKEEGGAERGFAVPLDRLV

From ChEMBL document CHEMBL3988442, “University of Dundee, Small-Polar-MMV Screening Library” (2021).

A: 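Assay of Toxoplasma gondii numbers, read through their beta-galactosidase reporter with a colour substrate. Compounds at 10 µM. Higher reads as fewer parasites (inferred from which compounds were picked for retests). About 67,000 compounds were tested under these conditions; 0.38% (about 260) showed 50% or more at least once.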
B: 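Whole-parasite assay of Trypanosoma brucei over 72 hours; the read-out is not stated. Tested at 30 µM. The record gives no direction; compounds that gave an IC50 in retests scored well above the rest, so higher reads as stronger inhibition. Values scatter widely below zero; nearly all retest evidence comes from the higher of the two concentrations used. Size under these conditions: about 64,000 compounds, about 940 of them at 50% or above in at least one test.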
C: 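Enzyme assay of histidyl-tRNA synthetase; the read-out is not stated. Target: Histidine-tRNA ligase, Leishmania infantum (UniProt A4I591). Concentration: 30 µM. Direction is inferred from retests: higher values go with stronger inhibition. The assay is labelled LdHisRS but filed under L. infantum. Size under these conditions: about 69,000 compounds, about 410 of them at 50% or above in at least one test.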
D: 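ClpP1P2, Mycobacterium tuberculosis (UniProt P9WPC5 and UniProt P9WPC3). Protease assay of ClpP1P2, read by the AMC dye that it sets free. Concentration: 50 µM. Higher reads as stronger inhibition, judged from the few compounds that gave an IC50. Most other retested compounds had strongly negative values. Of about 69,000 compounds tested this way, about 10 (0.015%) reached 50% or more in at least one test.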
E: 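Histidine-tRNA ligase, Trypanosoma cruzi CL Brener (UniProt Q4DA54). Enzyme assay of histidyl-tRNA synthetase; the read-out is not stated. Compounds at 30 µM. Direction is inferred from retests: higher values go with stronger inhibition. Size under these conditions: about 69,000 compounds, about 31 of them at 50% or above in at least one test.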

The filed quantity is “Percent Effect” (%).
How 0% and 100% were set is not recorded. Most values in the screen are low, and negative values occur.
Compounds were drawn at random from those tested, without regard to their results.
A dash means the value is not listed here; it may have been measured.

structure,A,B,C,D,E
CC(O)(CNC(=O)c1c(F)cccc1Cl)C1CC1 (centres undefined),-28.63,0.7985,25.64,-20.01,2.41
CN(CCO)Cc1nnc(C2CCN(C(=O)C3CCOCC3)CC2)n1C,3.696,-28.06,1.042,-6.797,6.704
CCc1nc(C2CCCN(C(=O)NC(C)C)C2)no1 (centres undefined),16.82,-,13.27,-40.29,3.207
CCOCC1CN(CCOc2ccc(Cl)cc2)Cc2c1cnn2C.O=C(O)C(F)(F)F.O=C(O)C(F)(F)F (centres undefined),0.976,23.49,-,-,-
O=C(C[C@@H]1COC[C@H]2CN(Cc3ccc(F)cc3)C[C@@H]12)N1CCOCC1,-,-,-3.883,1.992,-2.732
COc1cccc(N2CCN(C(=O)c3noc4c3CCCCC4)CC2)c1,-6.354,-10.35,26.32,-0.8136,8.537
COc1ccc(Oc2ccc(C(F)(F)F)cn2)cc1CN1CCCC1,11.38,-21.7,0,-6.627,5.464
CC(C)Oc1cc(N2CCN(Cc3ccsc3)C(CCO)C2)nc(N)n1 (centres undefined),-37.71,-76.56,0,0.43,7.879
O=C(c1cnc(-c2ccco2)s1)N1CCCC1Cn1cccn1 (centres undefined),6.13,16.73,21.62,7.466,3.383
O=C(O)C(F)(F)F.[H][C@@]12COC[C@]1([H])[C@@H](OCC1CCOCC1)CN2Cc1nccs1,17.65,-15.06,-,-,-
CC(=O)NCC(=O)N1Cc2nccn2CC(CN2CCCC2)C1 (centres undefined),-0.6993,-,7.519,-8.175,1.657
O=C(O)CCNC(=O)N1CCc2c([nH]c3ccc(Cl)cc23)C1,29.9,-23.73,-2.632,0.6912,1.754
Cc1nnc(CCNC(=O)C(c2ccc(F)cc2)N(C)C)[nH]1 (centres undefined),21.71,-38.17,16.13,-10.59,0
CC(=O)N1CCCC2(CN(Cc3ccc(C)s3)CCO2)C1 (centres undefined),-,-,13.89,-20.32,6.468
c1ccc2oc(CCCN3CCCC(Cn4cncn4)C3)nc2c1 (centres undefined),-12.6,-21.98,8.929,5.081,1.163
Cc1cnn(C2CCCN(C(=O)Cc3cn4ccsc4n3)C2)c1 (centres undefined),5.712,1.296,4.63,-8.959,3.226
CS(=O)(=O)N1Cc2nccn2CC(CNC(=O)c2cccnc2)C1.O=C(O)C(F)(F)F (centres undefined),5.16,-54.53,-,-,-
Cc1ccc(-c2nc(CC(=O)NCC3CCCN(C(C)C)C3)cs2)o1 (centres undefined),4.353,-20.23,-2.632,12.39,12.85
Cc1ccc2cc(CNCCCO)c(=O)[nH]c2c1,4.933,-11.78,16.67,2.713,2.703
[H][C@]12CCN(S(=O)(=O)Cc3ccccc3)[C@@]1([H])CC[C@@H](COCC)O2,14.42,-5.718,-,-,-
[H][C@@]12CCN(CC3CC3)C[C@]1(C(=O)NCCc1ccccn1)CCO2,2.182,8.753,-,-,-
O=C(O)C(F)(F)F.O=C(O)C(F)(F)F.[H][C@@]12C[C@@H](OCc3cccnc3)CN1CCN(C(=O)c1ccco1)C2,-24.77,-341.7,-,-,-
O=C(CCSc1ccccc1)NCCn1nc2ccccn2c1=O,-0.1775,-14.04,5.333,-1.088,0.5435
CS(=O)(=O)CCNC(=O)c1cc2ccccc2nc1N1CCCC1,3.523,1.688,18.92,4.989,13.33
COC(=O)C1CN(Cc2ccccc2C(C)(C)C#N)CCO1 (centres undefined),10.06,-25.56,13.33,-4.742,7.792
CC(=O)N1C[C@@H](c2ccsc2)[C@@H]2CN(Cc3ccccc3C)CC[C@@H]21,-,-,14.29,-1.539,0
CN(C)c1ncc(NC(=O)c2ccccc2C(F)(F)F)cn1,6.619,-14.74,21.95,-6.785,9.135
Cc1ccc(CNC(=O)Cn2nc(-c3ccc(F)cc3)oc2=O)cc1F,-16.41,8.963,8.929,-37.48,1.183
O=S(=O)(Cc1ccccc1)c1nnc(N2CCOCC2)s1,-1.569,8.155,17.58,4.898,3.012
O=C(O)C(F)(F)F.[H][C@]12C[C@@H](Cn3cncn3)N(CC3CC3)[C@@]1([H])CCN(S(C)(=O)=O)C2,11.81,9.918,-,-,-
O=C(C1CCS(=O)(=O)C1)N1CCN(c2cnccn2)CC1 (centres undefined),1.831,-39.51,12.31,1.312,0.3831
Fc1ccccc1CN1CCC[C@H](Cn2nnc(-c3cccs3)n2)C1,27.68,82.08,11.19,-25.29,9.04
Cc1cc(NCc2ccc(CO)cc2)n2nc(C)cc2n1,7.625,21.61,23.38,-7.774,-2.424
COc1ccc(CNCc2ccnc(N3CCCCC3)c2)cc1OC,-5.188,-43.34,8.511,7.273,2.29
CCc1cnc(N2CCN(CC(=O)Nc3c(C)n[nH]c3C)CC2)s1,4.327,-78.07,11.67,4.123,10.39
CC(C)NC(=O)CC1COC2(CCN(Cc3cccnc3)CC2)C1.O=C(O)C(F)(F)F.O=C(O)C(F)(F)F (centres undefined),-26.42,-21.51,-,-,-
O=C(O)c1cc(S(=O)(=O)Nc2ccc(F)cc2Cl)cc2c1OCCO2,7.003,-20.44,4.348,1.942,4.507
Cc1ccc(C)c(C(=O)N2CCN(C(=O)Cc3ccccn3)CC2)c1,1.657,1.533,14.78,11.21,3.38
Cc1ccc(CNC(=O)NC(C)CN2CCOCC2)s1 (centres undefined),1.977,-26.27,9.821,7.164,10
Cc1cccnc1NC(=O)c1ccc(F)c(S(=O)(=O)NC2CC2)c1,6.77,-51.42,3.109,2.385,1.657
CCn1ccnc1CN1CCN(C(C)C)CC1C (centres undefined),9.828,12.5,10.32,22.03,0

For reference, 3 entries once more:

structure	A	B	C	D	E
CCc1nc(C2CCCN(C(=O)NC(C)C)C2)no1 (centres undefined)	16.82	-	13.27	-40.29	3.207
CC(C)NC(=O)CC1COC2(CCN(Cc3cccnc3)CC2)C1.O=C(O)C(F)(F)F.O=C(O)C(F)(F)F (centres undefined)	-26.42	-21.51	-	-	-
COC(=O)C1CN(Cc2ccccc2C(C)(C)C#N)CCO1 (centres undefined)	10.06	-25.56	13.33	-4.742	7.792